System: H358 cells (KRAS mutant)
Test: CellTiter-Glo viability assay, H358;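 also: viable cell number estimated from ATP-dependent luminescence following exposure to serially diluted inhibitor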
Type: cell-based
Conditions: Homo sapiens, NCI-H358, H358, 96 hours, read-out: KRAS CTG EC50 H358
Description: Structure determination and refinement.
PHASER (R.J. Read, Acta Crystallogr D Biol Crystallogr 2001, 57, 1373-1382) using structure PDB ID: 3G5D and 5J9Z as templates. The molecules in the asymmetric unit were manually adjusted using the program COOT (P. Emsley, K. Cowtan, Acta Crystallogr D Biol Crystallogr 2004, 60, 2126-2132). The refinement was performed with Phenix 1.10 (P.D. Adams, P.V.
Afonine, G. Bunkoczi, V.B. Chen, I.W. Davis, N. Echols, J.J. Headd, L.W. Hung, G.J. Kapral, R.W.
Grosse-Kunstleve, A.J. McCoy, N.W. Moriarty, R. Oeffner, R.J. Read, D.C. Richardson, J.S.
Richardson, T.C. Terwilliger, P.H. Zwart, Acta Cryst 2010, D66, 213-221). […]
Afterwards viability studies were carried out using CellTiter-Glo Assay (Promega, USA) that is a homogeneous method of determining the number of viable cells in culture. It is based on quantification of ATP, indicating the presence of metabolically active cells. […] Following incubation the luminescence was recorded on an EnVision microplate reader (Perkin Elmer) using 500 ms integration time. The data was then analyzed using the Quattro Research Software Suite for EC50-determination. As quality control the Z’-factor was calculated from 16 positive and negative control values. […] All data points were measured in duplicates for each plate and were replicated in at least two plates.

EC50: 10.8 ± 4.93 µM
Structure (SMILES): COc1cc2ncnc(Nc3ccc(F)c(Cl)c3)c2cc1OCCCN1CCOCC1 [Gefitinib, gefitinib, reference compound]

— article PMC6886544
